Assay results: PubChem BioAssay AID588590 (National Center for Advancing Translational Sciences (NCATS), 2011)
The whole screen tested about 390,000 compounds, of which about 4,000 (1%) were called active. This list was built around the results that the source calls inconclusive (neither active nor inactive); the mix of calls is not that of the screen. Calls follow the shape of the dose curve; as a rule, active = well fitted inhibition curve with a large enough effect; inconclusive = small, poorly fitted or top-dose-only effect, or another doubt; inactive = no such curve, though single readings can be large or run the other way. Potencies beside an inconclusive call are fits to weak or partial responses and may not hold up.

By UniProt entry, the sequences of proteins in these tests, tags left out. Where a name states a change or a piece, a line headed by the entry shows the natural chain unless it says otherwise.
UniProt Q9UNA4: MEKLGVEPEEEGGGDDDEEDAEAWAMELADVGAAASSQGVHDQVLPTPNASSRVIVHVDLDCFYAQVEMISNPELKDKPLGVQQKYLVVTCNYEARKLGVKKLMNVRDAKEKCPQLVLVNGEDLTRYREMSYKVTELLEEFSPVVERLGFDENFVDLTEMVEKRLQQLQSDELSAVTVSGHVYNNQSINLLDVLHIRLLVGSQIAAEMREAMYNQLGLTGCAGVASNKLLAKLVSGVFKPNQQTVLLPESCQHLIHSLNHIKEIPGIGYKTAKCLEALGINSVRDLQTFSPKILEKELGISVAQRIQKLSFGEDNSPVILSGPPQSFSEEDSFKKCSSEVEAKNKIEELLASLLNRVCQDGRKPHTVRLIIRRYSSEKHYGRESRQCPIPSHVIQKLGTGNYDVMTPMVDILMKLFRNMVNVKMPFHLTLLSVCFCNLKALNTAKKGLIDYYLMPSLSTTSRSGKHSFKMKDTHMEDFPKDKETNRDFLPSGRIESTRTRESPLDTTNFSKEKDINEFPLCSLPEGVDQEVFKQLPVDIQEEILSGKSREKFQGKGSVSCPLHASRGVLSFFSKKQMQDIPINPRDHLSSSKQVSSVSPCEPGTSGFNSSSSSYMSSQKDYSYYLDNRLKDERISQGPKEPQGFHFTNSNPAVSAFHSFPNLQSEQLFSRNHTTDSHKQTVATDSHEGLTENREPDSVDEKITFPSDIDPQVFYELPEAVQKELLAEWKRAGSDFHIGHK

molecular target: DNA polymerase iota (Homo sapiens) (UniProt Q9UNA4); test: qHTS for Inhibitors of Polymerase Iota; conditions: Pol iota fluorescent replication assay, 10 min; series mostly up to 115 µM; activity, negative = inhibition: at the top concentration
Outline: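 Pol iota at 10 nM preincubated 15 min with compounds at room temperature; reaction started with fluorescent substrate, 50 nM final. Fluorescence read kinetically at 0 and 10 min; buffer-only wells as negative control.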
Potency is read from the fitted curve at half-maximal effect.

SMILES	activity, negative = inhibition	Potency
O=C(Nc1ccc(Cl)cc1Cl)[C@@H]1CC=C[C@@H]2CCN(C3CCCCC3)C(=O)[C@@H]21	inactive: 3.86%	
O=C(NC1CCCCC1)C(c1ccccc1)N1CCc2ccccc21 (stereo not drawn)		inconclusive: 39.8 µM [inhibitor, partial curve, poor fit]
CCc1ccc(NC2=CC(=O)C(=O)c3ccccc32)cc1		inconclusive: 22.4 µM [inhibitor, single point]
COc1ccc2nc(-c3ccccc3)nc(SC)c2c1		inconclusive: 89.1 µM [inhibitor, single point]
CCC[C@@H](CN[C@@H](CNC)[C@H](C)CC)NCC1CCC(C(C)(C)C)CC1 (stereo partly drawn)		inconclusive: 15.8 µM [inhibitor, full curve, poor fit]
CC(=O)N1CCN(c2ccc(Nc3ncnc4c3oc3ccccc34)cc2)CC1		inconclusive: 8.91 µM [inhibitor, single point]
CCC1=Nc2cc(C(=O)O)ccc2Sc2ccccc21	inactive: -9.02%	
Cn1c(SCC(=O)NCc2ccco2)nnc1-c1c[nH]c2ccccc12		inconclusive: 39.8 µM [inhibitor, single point]
c1ccc(C(c2nnnn2Cc2ccco2)N2CCN(c3nc4ccccc4s3)CC2)cc1 (stereo not drawn)		inconclusive: 25.1 µM [inhibitor, partial curve]
CCc1nn(CC(=O)Nc2ccc(C)c(F)c2)c(=O)c2cc3cc(C)ccc3n12		inconclusive: 89.1 µM [inhibitor, partial curve, poor fit]
CC1CC2=C(NC(=S)NC2c2ccc(F)cc2)/C(=C/c2ccc(F)cc2)C1 (stereo not drawn)		active: 79.4 µM
CCCCN1CC(c2nc3ccccc3n2CCCCOc2ccccc2C)CC1=O (stereo not drawn)	inactive: -6.44%	
COC(=O)c1sc(N)c(C(=O)OC)c1COC(=O)CNS(=O)(=O)c1ccc(C)c(C)c1	inactive: -1.11%	
N#C/C(=C\c1ccccc1OCc1ccc(C(=O)O)cc1)C(=O)Nc1ccc(O)cc1		inconclusive: 11.2 µM [inhibitor, partial curve]
COc1ccc(NC(=O)CN(C)C(=O)c2cc3c(s2)CCC3)cc1		active: 7.08 µM
C=CCSc1nnc(NC(=O)CSc2nc3ccccc3[nH]2)s1		inconclusive: 56.2 µM [inhibitor, full curve, poor fit]
CCCCNC(=O)c1ccc(Cn2c(=S)[nH]c3c([nH]c4ccc(OC)cc43)c2=O)cc1	inactive: 12.4%	
CCOc1ccc(S(=O)(=O)NCC(c2ccc(N(C)C)cc2)N2CCCC2)cc1 (stereo not drawn)	inactive: 9.83%	
Cc1ccc(S(=O)(=O)Nc2cc(C)cn(Cc3ccc(F)cc3)c2=O)cc1		inconclusive: 12.6 µM [inhibitor, partial curve, poor fit]
CCOC(=O)c1sc(NS(=O)(=O)c2ccc(C)cc2)nc1C		inconclusive: 89.1 µM [inhibitor, single point]
COc1ccc(C(=O)/C(C#N)=N/Nc2cccc([N+](=O)[O-])c2)cc1	inactive: -3.61%	
O/N=C1\CCC\C1=C/c1ccco1		inconclusive: 50.1 µM [inhibitor, partial curve, poor fit]

Of the compounds above, 2 have a thiophene ring, fused or not.
SMILES	activity, negative = inhibition	Potency
COC(=O)c1sc(N)c(C(=O)OC)c1COC(=O)CNS(=O)(=O)c1ccc(C)c(C)c1	inactive: -1.11%	
COc1ccc(NC(=O)CN(C)C(=O)c2cc3c(s2)CCC3)cc1		active: 7.08 µM

Additional compounds:

SMILES	activity, negative = inhibition	Potency
COc1ccc(CNC(=O)NC(C)(C)c2cccc(C(C)(C)NC(=O)NCc3ccc(OC)cc3)c2)cc1		inconclusive: 89.1 µM [inhibitor, single point]
Cc1ccc(-n2c3nc(=O)[nH]c(=O)c-3cc3cc([N+](=O)[O-])ccc32)cc1		inconclusive: 10 µM [inhibitor, partial curve, poor fit]
COc1ccc(C(=O)c2coc3ccc(O)cc23)cc1		inconclusive: 22.4 µM [inhibitor, single point]
COc1ccc(NC(=O)CSc2ccc(-c3ccco3)nn2)cc1OC		inconclusive: 22.4 µM [inhibitor, full curve, poor fit]
COc1ccc2[nH]c(C)c(C(=O)CN(C)CC(OC)OC)c2c1	inactive: 9.31%	
CC(C)(C)OC(=O)N1CCC(c2c(C(=O)NCCN3CCC(Cc4ccccc4)CC3)cnn2-c2cccc(Cl)c2)CC1	inactive: -6.1%	
CC1CCN(c2nc3nonc3nc2N2CCC(C)CC2)CC1		inconclusive: 100 µM [inhibitor, single point]
CCN(C(=O)c1noc2c1COc1ccc(C)cc1-2)c1cccc(C)c1	inactive: 1.68%	
c1ccc(CCNc2nc(-c3ccccn3)nc3ccccc23)cc1	inactive: 54.9%	
CCS(=O)(=O)Nc1cccc(C(=O)O)c1		inconclusive: 28.2 µM [inhibitor, full curve, poor fit]
CCCn1c(/N=C/c2c[nH]c3ccccc23)nc2ccccc21		inconclusive: 79.4 µM [inhibitor, partial curve, poor fit]
CCOC(=O)N1CCN(C(=O)COC(=O)c2ccc(S(=O)(=O)N(CC)CC)cc2)CC1	inactive: 9.41%	
COc1cc(C(=O)NC2CCN(C)CC2)ccc1Nc1ncc2c(n1)N(C1CCCCC1)CCC(=O)N2C		inconclusive: 22.4 µM [inhibitor, partial curve, poor fit]
CCOC(=O)c1cnc2cc(-c3ccc(Br)cc3)nn2c1C		inconclusive: 79.4 µM [inhibitor, single point]
O=[N+]([O-])c1ccc2[nH]c3nc4ccccc4nc3c2c1		inconclusive: 10 µM [inhibitor, partial curve, poor fit]
S=c1[nH]nc(-c2ccccn2)n1/N=C/c1ccc(-c2ccccc2Br)o1		active: 79.4 µM
NC1(C(=O)O)CSSC1		inconclusive: 11.2 µM [inhibitor, partial curve, poor fit]
CCCC12CN3CC(C)(CN(C1)C31C(=O)Nc3ccc(C)cc31)C2=O (stereo not drawn)		inconclusive: 100 µM [inhibitor, partial curve, poor fit]
CCOc1ccc(/C=N/NC(=O)c2cc(-c3ccco3)nc3ccccc23)cc1		inconclusive: 20 µM [inhibitor, full curve, poor fit]
O=C(CN1C(=O)S/C(=C\c2ccccc2F)C1=O)Nc1ccccc1O		inconclusive: 89.1 µM [inhibitor, single point]
COC(=O)c1cc(NC(=O)c2oc(=O)c3ccccc3c2-c2ccccc2)cc(C(=O)OC)c1	inactive: 15.1%	
